Test results as given in the supplement of paper PMC10849652.
Some of the results follow.

The chains behind the UniProt entries cited, without tags or fusion partners. Where a name states a change or a piece, a line headed by the entry shows the natural chain unless it says otherwise.
UniProt Q53S58: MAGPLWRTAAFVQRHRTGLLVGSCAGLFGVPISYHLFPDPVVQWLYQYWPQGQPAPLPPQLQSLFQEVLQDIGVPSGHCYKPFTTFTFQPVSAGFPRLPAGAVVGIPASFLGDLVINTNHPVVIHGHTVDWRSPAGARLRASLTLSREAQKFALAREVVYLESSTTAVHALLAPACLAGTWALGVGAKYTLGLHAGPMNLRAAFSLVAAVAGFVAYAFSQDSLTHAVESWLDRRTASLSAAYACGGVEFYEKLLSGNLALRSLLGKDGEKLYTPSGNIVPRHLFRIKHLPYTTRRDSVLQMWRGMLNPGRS
UniProt Q9NR96: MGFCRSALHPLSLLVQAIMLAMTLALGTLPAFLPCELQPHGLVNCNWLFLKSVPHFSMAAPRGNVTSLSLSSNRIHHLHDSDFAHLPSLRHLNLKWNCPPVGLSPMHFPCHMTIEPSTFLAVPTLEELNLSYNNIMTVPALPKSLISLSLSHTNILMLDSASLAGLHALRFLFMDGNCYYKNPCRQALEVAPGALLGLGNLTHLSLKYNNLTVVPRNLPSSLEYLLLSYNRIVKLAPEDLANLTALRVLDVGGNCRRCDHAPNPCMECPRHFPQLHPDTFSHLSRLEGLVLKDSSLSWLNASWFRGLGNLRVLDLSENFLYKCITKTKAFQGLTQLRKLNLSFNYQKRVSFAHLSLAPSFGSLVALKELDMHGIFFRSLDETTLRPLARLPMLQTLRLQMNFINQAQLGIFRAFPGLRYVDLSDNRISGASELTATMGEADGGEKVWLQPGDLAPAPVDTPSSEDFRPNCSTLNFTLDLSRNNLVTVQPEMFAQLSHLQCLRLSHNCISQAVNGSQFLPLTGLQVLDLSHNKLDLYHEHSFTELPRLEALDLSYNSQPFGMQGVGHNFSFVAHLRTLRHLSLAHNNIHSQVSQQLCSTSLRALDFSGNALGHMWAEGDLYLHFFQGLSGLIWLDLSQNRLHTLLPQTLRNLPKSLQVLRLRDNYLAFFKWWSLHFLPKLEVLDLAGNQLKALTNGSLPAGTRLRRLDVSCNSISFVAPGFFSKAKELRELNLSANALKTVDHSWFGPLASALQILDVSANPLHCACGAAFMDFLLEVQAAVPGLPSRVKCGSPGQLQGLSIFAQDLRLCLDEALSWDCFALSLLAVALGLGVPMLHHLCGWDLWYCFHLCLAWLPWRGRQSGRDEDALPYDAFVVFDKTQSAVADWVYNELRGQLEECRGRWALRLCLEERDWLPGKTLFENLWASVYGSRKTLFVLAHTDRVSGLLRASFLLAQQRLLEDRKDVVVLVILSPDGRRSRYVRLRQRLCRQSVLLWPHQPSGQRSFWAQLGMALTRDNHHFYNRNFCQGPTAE
UniProt Q96I45: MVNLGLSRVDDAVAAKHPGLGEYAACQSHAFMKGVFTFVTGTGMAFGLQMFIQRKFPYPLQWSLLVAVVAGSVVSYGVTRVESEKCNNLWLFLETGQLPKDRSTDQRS
UniProt Q9P0T7: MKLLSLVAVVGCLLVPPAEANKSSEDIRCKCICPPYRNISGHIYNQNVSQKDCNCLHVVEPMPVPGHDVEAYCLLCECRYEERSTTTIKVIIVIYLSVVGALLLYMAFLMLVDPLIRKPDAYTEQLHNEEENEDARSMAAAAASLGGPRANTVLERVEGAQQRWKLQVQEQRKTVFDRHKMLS
UniProt Q96HV5: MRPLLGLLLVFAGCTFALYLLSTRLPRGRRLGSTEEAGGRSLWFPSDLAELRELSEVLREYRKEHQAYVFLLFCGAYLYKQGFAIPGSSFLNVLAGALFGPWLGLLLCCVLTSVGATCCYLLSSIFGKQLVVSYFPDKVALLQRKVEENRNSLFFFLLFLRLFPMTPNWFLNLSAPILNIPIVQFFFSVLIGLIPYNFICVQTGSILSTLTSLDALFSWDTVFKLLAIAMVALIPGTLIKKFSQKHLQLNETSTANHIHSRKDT
UniProt Q5BJH2: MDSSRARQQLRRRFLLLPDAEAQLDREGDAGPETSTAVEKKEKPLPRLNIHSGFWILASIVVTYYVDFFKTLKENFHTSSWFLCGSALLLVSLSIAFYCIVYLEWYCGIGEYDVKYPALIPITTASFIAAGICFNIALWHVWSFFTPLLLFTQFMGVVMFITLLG
UniProt Q86WV6: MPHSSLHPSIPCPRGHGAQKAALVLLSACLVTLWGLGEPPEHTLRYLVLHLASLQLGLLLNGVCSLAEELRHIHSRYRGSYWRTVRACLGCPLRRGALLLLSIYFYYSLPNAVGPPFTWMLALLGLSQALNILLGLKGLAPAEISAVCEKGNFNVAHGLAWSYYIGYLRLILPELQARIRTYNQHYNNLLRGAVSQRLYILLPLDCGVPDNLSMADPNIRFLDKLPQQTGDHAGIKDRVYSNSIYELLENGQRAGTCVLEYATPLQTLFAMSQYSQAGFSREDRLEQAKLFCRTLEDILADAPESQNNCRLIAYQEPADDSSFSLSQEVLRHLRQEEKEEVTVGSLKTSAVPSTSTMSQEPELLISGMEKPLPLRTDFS
UniProt Q9NS93: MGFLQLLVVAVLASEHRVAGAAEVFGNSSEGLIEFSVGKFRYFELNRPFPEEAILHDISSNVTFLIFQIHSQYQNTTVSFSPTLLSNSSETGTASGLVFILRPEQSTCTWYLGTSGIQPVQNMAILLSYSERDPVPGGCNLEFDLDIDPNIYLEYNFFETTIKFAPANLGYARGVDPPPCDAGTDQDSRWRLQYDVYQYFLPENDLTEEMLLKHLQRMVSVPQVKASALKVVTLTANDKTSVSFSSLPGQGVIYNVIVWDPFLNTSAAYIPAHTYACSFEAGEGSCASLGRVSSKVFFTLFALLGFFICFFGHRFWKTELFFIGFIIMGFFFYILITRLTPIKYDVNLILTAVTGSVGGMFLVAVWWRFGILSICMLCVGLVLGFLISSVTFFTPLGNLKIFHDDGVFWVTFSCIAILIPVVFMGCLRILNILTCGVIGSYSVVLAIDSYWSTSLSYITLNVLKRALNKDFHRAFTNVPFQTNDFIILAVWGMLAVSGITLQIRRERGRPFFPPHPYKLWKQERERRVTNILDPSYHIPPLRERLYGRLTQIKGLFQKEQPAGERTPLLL
UniProt O00220, whole entry, looked up: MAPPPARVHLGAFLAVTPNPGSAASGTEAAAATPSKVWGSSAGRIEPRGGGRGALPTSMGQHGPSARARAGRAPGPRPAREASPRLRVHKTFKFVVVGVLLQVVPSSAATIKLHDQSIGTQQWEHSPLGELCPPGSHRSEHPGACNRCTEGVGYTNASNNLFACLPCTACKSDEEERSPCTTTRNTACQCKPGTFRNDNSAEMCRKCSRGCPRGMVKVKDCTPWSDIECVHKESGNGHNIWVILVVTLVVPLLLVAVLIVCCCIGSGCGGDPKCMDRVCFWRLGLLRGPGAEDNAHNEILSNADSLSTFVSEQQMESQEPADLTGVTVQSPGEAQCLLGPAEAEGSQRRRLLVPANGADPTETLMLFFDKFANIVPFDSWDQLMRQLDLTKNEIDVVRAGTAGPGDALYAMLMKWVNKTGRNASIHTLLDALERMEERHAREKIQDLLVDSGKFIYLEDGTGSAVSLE
UniProt Q9BUB7: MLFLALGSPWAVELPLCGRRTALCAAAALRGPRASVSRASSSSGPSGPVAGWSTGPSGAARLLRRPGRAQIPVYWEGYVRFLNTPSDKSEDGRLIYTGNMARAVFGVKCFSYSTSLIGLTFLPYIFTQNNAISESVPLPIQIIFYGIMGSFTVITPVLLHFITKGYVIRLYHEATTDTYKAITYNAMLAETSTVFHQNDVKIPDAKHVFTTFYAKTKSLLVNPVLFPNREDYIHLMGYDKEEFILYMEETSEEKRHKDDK
UniProt Q86UE8, whole entry, looked up: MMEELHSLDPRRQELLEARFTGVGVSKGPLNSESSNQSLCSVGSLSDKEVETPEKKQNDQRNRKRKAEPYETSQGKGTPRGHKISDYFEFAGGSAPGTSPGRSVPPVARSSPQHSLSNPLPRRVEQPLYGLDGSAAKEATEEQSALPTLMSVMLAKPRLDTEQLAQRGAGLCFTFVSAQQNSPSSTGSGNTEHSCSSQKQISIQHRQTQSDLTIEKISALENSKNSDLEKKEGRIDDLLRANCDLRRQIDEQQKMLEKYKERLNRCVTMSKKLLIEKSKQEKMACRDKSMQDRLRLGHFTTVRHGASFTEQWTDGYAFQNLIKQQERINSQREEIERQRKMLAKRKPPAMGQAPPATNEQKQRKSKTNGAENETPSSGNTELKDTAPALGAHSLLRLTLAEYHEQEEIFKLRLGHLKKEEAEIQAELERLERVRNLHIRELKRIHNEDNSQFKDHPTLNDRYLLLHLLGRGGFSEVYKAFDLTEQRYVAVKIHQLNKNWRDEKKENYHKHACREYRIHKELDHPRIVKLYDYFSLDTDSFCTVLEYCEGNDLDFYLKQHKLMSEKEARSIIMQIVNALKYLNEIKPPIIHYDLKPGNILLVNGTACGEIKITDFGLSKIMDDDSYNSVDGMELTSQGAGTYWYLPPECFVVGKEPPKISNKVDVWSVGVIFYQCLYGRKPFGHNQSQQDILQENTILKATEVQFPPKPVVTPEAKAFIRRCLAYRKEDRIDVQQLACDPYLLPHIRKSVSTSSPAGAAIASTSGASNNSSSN
UniProt Q9BSE2: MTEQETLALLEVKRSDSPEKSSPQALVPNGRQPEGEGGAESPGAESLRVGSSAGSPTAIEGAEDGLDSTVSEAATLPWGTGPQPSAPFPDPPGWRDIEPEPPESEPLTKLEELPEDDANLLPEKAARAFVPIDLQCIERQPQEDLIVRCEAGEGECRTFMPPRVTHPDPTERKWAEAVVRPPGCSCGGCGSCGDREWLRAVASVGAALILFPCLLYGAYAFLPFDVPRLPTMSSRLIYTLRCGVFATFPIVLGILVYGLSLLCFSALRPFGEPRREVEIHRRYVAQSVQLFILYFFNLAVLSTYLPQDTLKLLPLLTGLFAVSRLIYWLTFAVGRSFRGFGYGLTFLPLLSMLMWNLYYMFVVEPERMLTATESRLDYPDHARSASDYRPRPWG
UniProt Q9NX78: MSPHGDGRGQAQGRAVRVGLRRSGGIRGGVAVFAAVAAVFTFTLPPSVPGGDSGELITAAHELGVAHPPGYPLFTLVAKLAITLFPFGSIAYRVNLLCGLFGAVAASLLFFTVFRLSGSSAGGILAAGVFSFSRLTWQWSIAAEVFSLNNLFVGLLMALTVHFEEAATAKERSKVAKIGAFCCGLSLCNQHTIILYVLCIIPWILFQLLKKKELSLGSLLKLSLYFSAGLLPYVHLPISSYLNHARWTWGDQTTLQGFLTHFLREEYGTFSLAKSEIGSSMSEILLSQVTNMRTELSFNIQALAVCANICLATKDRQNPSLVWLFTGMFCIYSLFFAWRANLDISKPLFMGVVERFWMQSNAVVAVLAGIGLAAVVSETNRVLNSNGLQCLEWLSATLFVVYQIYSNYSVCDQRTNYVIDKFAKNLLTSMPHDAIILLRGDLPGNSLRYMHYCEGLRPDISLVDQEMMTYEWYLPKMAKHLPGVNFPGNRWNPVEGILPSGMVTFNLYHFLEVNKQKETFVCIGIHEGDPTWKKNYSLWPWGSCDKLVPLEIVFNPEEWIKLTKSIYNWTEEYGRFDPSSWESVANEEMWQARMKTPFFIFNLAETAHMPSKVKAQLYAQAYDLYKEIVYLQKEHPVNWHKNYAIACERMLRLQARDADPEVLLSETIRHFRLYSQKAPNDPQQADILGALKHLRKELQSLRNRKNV
UniProt Q96DC7: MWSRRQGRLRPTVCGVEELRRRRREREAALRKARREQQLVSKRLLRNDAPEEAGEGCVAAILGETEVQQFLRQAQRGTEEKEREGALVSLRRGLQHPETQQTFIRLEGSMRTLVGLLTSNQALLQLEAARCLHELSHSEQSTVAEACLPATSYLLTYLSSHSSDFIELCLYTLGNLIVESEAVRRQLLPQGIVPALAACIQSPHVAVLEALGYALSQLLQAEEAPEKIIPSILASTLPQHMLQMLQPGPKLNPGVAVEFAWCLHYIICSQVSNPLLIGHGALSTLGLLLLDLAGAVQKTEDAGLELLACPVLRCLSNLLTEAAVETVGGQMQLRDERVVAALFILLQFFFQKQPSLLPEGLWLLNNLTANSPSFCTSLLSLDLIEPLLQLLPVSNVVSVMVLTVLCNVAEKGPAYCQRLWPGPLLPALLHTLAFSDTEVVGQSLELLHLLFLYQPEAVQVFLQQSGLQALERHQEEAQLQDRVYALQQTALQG
UniProt Q9BVX2: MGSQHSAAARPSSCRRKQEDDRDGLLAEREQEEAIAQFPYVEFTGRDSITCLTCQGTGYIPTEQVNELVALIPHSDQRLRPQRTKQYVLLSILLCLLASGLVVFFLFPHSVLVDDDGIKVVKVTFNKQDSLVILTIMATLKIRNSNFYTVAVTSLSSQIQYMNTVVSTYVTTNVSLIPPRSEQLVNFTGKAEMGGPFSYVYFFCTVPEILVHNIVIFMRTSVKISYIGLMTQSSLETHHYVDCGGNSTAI
UniProt Q8NCS4: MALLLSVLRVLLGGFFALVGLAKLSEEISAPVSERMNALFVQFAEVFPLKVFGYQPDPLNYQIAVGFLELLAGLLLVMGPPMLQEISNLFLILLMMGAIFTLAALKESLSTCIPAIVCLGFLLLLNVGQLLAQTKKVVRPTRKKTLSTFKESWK

Columns and labels:
Test in all cases: log2 fold change, soluble protein after heating vs DMSO (PISA); higher = thermal stabilisation; K562 cells, 10 uM, 30 min; active = over 0.2 and 3.5 SD of the protein, either way, in both replicates (recomputed)
[1] = compound: CS(=O)(=O)c1ccc(-c2cnc(N)c(C(=O)Nc3ccccc3)n2)cc1
Outline: (§1)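 For each measurement, 10 μM compound was applied for 30 min to K562 cells at 2×10^6 cells/mL. Aliquots were heated for 3 min across 48°C-58°C, pooled, and extracted in PBS with 0.5% NP-40 at 4°C; the supernatant after 21,000xg for 90 min was soluble protein. This was quantified by TMTpro 16plex LC-MS/MS with channel sums equalised, and thermal stability was reported relative to control samples from duplicates, on a log2 fold-change scale.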

[2] = compound: C[C@@H](Oc1cc(-c2cnn(C3CCNCC3)c2)cnc1N)c1c(Cl)ccc(F)c1Cl [crizotinib]
Outline: as §1

[3] = compound: C[C@@H]1COCCN1C2=NC(=NC(=C2)C3(CC3)S(=O)(=O)C)C4=C5C=CNC5=CC=C4
Outline: as §1

[4] = compound: C[C@H](C1=CC=C(C=C1)C(=O)NC2=C3C=CNC3=NC=C2)N
Outline: as §1

[5] = compound: Cc1cc(Nc2cc(CN3CCOCC3)c3nc(C)c(Cc4ccc(Cl)cc4F)n3n2)n[nH]1 [gandotinib]
Outline: as §1

[6] = compound: Cc1cc(SCc2sc(-c3ccc(C(F)(F)F)cc3)nc2C)ccc1OCC(=O)O
Outline: as §1

[7] = compound: Cc1ccc(-n2nc(C(C)(C)C)cc2NC(=O)Nc2ccc(OCCN3CCOCC3)c3ccccc23)cc1 [doramapimod]
Outline: as §1

[8] = compound: Cc1ccc(C(=O)N(CCCN)[C@@H](c2nc3cc(Cl)ccc3c(=O)n2Cc2ccccc2)C(C)C)cc1 [ispinesib]
Outline: as §1

[9] = compound: Cc1ccc(NC(=O)c2ccc(CN3CC[C@H](N(C)C)C3)c(C(F)(F)F)c2)cc1Nc1nccc(-c2cncnc2)n1 [bafetinib]
Outline: as §1

[10] = compound: Cc1cccc(CC(=O)N2CCc3c2ccc(-c2cn(C)c4ncnc(N)c24)c3F)n1
Outline: as §1

[11] = compound: Cc1cn(-c2cc(NC(=O)c3ccc(C)c(Nc4nccc(-c5cccnc5)n4)c3)cc(C(F)(F)F)c2)cn1 [nilotinib]
Outline: as §1

[12] = compound: Cc1nc(Nc2n[nH]c3c2CN(C(=O)N[C@H](CN(C)C)c2ccccc2)C3(C)C)c2sccc2n1
Outline: as §1

[13] = compound: Cc1nc(Nc2ncc(C(=O)Nc3c(C)cccc3Cl)s2)cc(N2CCN(CCO)CC2)n1 [dasatinib]
Outline: as §1

[14] = compound: Cc1ncc(-c2ccnc(Nc3ccc(S(C)(=O)=O)cc3)n2)n1C(C)C
Outline: as §1

[15] = compound: Cn1cc(-c2ccc3c(c2)CCN3C(=O)Cc2cccc(C(F)(F)F)c2)c2c(N)ncnc21
Outline: as §1

[16] = compound: Cn1cc(-c2ccc3nnc(C(F)(F)c4ccc5ncccc5c4)n3n2)cn1
Outline: as §1

[17] = compound: Cn1cncc1[C@@](N)(c1ccc(Cl)cc1)c1ccc2c(c1)c(-c1cccc(Cl)c1)cc(=O)n2C [tipifarnib]
Outline: as §1

[18] = compound: FC(F)(F)c1ccc(/C=C/c2nc(COc3ccc(CCCCn4ccnn4)cc3)co2)cc1 [mubritinib]
Outline: as §1

[19] = compound: C[C@H](Nc1ncnc2nc[nH]c12)c1cc2cccc(Cl)c2c(=O)n1-c1ccccc1 [duvelisib]
Outline: as §1

[20] = compound: Cc1cc(Nc2cc(N3CCN(C)CC3)nc(Sc3ccc(NC(=O)C4CC4)cc3)n2)n[nH]1 [tozasertib]
Outline: as §1

Measured: log2 fold change

TM9SF2 (UniProt Q99805)
inactive: [1] 0.056 | [3] -0.017 | [4] -0.049 | [5] 0.008 | [6] 0 | [7] 0.007 | [8] -0.089 | [9] -0.056 | [10] 0.008 | [11] 0.025 | [12] -0.072 | [13] -0.013 | [14] 0.041 | [15] 0.023 | [16] 0.036 | [17] 0.009 | [18] -0.006
active: [2] -0.754

TMBIM1 (UniProt Q969X1)
inactive: [1] -0.03 | [3] -0.043 | [4] 0.274 | [5] -0.017 | [6] -0.026 | [8] 0.303 | [9] 0.068 | [10] -0.07 | [11] 0.168 | [12] -0.044 | [13] -0.01 | [14] 0.149 | [15] -0.06 | [16] -0.105 | [17] -0.318 | [18] 0.025

TMEM177 (UniProt Q53S58)
active: [8] -0.304
inactive: [1] 0.005 | [2] 0.033 | [3] 0.065 | [4] 0.011 | [5] 0.025 | [6] 0.053 | [7] -0.062 | [9] -0.123 | [10] 0.054 | [11] -0.001 | [12] -0.005 | [13] -0.045 | [14] 0.023 | [15] -0.019 | [16] 0.016 | [17] 0.004 | [18] 0.026

TLR9 isoform 4 (UniProt Q9NR96)
inactive: [1] -0.004 | [3] 0.107 | [4] -0.161 | [19] 0.184 | [20] -0.334 | [6] 0.147 | [8] 0.117 | [9] 0.014 | [11] -0.007 | [12] 0.078 | [13] -0.201 | [14] 0.051 | [15] -0.226 | [16] 0.001 | [18] 0.064

TMEM141 (UniProt Q96I45)
inactive: [1] 0.057 | [2] 0.151 | [4] -0.026 | [19] 0.13 | [5] 0.086 | [20] -0.032 | [6] -0.032 | [7] 0.076 | [9] -0.026 | [10] 0.274 | [11] 0.012 | [12] -0.029 | [13] 0 | [14] -0.022 | [15] 0.048 | [17] 0.056 | [18] 0.013

TMEM9 (UniProt Q9P0T7)
inactive: [1] -0.026 | [2] -0.026 | [3] 0.029 | [4] -0.197 | [5] -0.026 | [6] 0.014 | [7] 0.048 | [8] -0.093 | [9] 0.028 | [10] -0.048 | [11] -0.017 | [12] -0.022 | [13] -0.087 | [14] -0.037 | [15] 0.057 | [16] -0.007 | [17] -0.068 | [18] 0.025

TMEM41A (UniProt Q96HV5)
inactive: [1] -0.023 | [2] 0.139 | [3] 0.137 | [5] -0.044 | [6] 0 | [7] 0.025 | [8] 0.065 | [9] -0.037 | [11] -0.008 | [12] -0.01 | [13] 0.054 | [14] -0.049 | [16] 0.082 | [17] 0.026 | [18] 0.062
active: [10] 0.276

TMEM128 (UniProt Q5BJH2)
inactive: [1] 0.001 | [2] 0.234 | [3] -0.062 | [4] 0.025 | [6] 0.016 | [7] -0.138 | [8] 0.021 | [9] -0.065 | [11] -0.008 | [12] 0.003 | [13] -0.01 | [14] -0.031 | [15] 0.061 | [16] -0.021 | [17] 0.066

TMEM173 (UniProt Q86WV6)
inactive: [1] 0.042 | [2] 0.147 | [3] 0.041 | [4] 0.004 | [5] -0.151 | [6] 0.078 | [7] 0.023 | [8] 0.037 | [9] 0.007 | [10] 0.019 | [11] -0.129 | [12] -0.013 | [13] -0.156 | [14] 0.003 | [15] 0.001 | [16] -0.046 | [17] 0.021 | [18] 0.066

TM7SF3 (UniProt Q9NS93)
inactive: [1] -0.01 | [4] -0.216 | [6] -0.003 | [7] 0.052 | [9] -0.147 | [11] -0.004 | [12] 0.005 | [13] 0.005 | [14] -0.029 | [15] -0.034 | [16] 0.034 | [17] 0.019 | [18] 0.147
active: [2] -0.432 | [8] -0.343

TNFRSF10A (UniProt O00220)
inactive: [1] -0.008 | [2] 0.037 | [3] 0.047 | [4] -0.073 | [5] 0.019 | [6] -0.019 | [7] -0.023 | [8] -0.075 | [9] -0.044 | [10] -0.051 | [11] 0.061 | [12] -0.055 | [13] -0.015 | [14] 0.058 | [15] -0.082 | [16] -0.005 | [17] -0.054 | [18] -0.05

TMEM167B (UniProt Q9NRX6)
inactive: [1] 0.049 | [2] 0.047 | [19] 0.032 | [5] 0.046 | [20] -0.007 | [6] -0.013 | [7] -0.021 | [8] 0.02 | [9] -0.075 | [10] -0.093 | [11] 0.027 | [12] 0.003 | [13] 0.035 | [14] -0.001 | [16] -0.029 | [17] 0.106 | [18] 0.01

Two records drawn at random from the list so far, as already listed:
TM7SF3 (UniProt Q9NS93)
inactive: [1] -0.01 | [4] -0.216 | [6] -0.003 | [7] 0.052 | [9] -0.147 | [11] -0.004 | [12] 0.005 | [13] 0.005 | [14] -0.029 | [15] -0.034 | [16] 0.034 | [17] 0.019 | [18] 0.147
active: [2] -0.432 | [8] -0.343

TNFRSF10A (UniProt O00220)
inactive: [1] -0.008 | [2] 0.037 | [3] 0.047 | [4] -0.073 | [5] 0.019 | [6] -0.019 | [7] -0.023 | [8] -0.075 | [9] -0.044 | [10] -0.051 | [11] 0.061 | [12] -0.055 | [13] -0.015 | [14] 0.058 | [15] -0.082 | [16] -0.005 | [17] -0.054 | [18] -0.05

Later entries:

TMEM70 (UniProt Q9BUB7)
inactive: [1] 0.025 | [2] -0.096 | [3] 0.035 | [4] 0.002 | [5] -0.08 | [6] 0.087 | [7] -0.017 | [8] -0.243 | [9] -0.141 | [10] 0.026 | [11] 0.028 | [12] -0.003 | [13] -0.094 | [14] 0.018 | [15] 0.06 | [16] 0.023 | [17] -0.02 | [18] 0.017

TLK2 isoform 2 (UniProt Q86UE8)
active: [12] -0.407
inactive: [1] -0.063 | [2] -0.031 | [3] 0.139 | [4] -0.095 | [5] 0.165 | [6] -0.07 | [7] -0.042 | [8] 0.019 | [9] -0.051 | [10] -0.042 | [11] 0.006 | [13] -0.01 | [14] 0.007 | [15] 0.046 | [16] -0.033 | [17] 0.01 | [18] -0.001

TMEM79 (UniProt Q9BSE2)
inactive: [20] -0.193 | [9] -0.047 | [11] -0.069 | [12] -0.094 | [14] 0.065

TMEM260 (UniProt Q9NX78)
inactive: [2] -0.001 | [19] -0.055 | [20] 0.05 | [6] -0.1 | [7] -0.007 | [13] -0.182 | [18] 0.144

TMCO6 isoform 2 (UniProt Q96DC7)
inactive: [19] 0.234 | [5] -0.008 | [6] 0.105 | [10] 0.004 | [13] -0.34

TMEM106C (UniProt Q9BVX2)
inactive: [1] 0.06 | [19] 0.095 | [6] 0.025 | [9] 0 | [11] -0.278 | [12] -0.094 | [13] -0.206 | [14] -0.197 | [17] 0.128

TMEM35B (UniProt Q8NCS4)
inactive: [2] -0.182 | [19] -0.361 | [5] -0.096 | [20] -0.168 | [6] 0.169 | [7] -0.099 | [9] -0.119 | [10] 0.016 | [11] 0.115 | [12] -0.149 | [13] -0.028 | [14] 0 | [18] 0.019
